Measurements: patent US20230235374A1, “High Throughput Assays for Detecting Translation Readthrough Inducers” (The Trustees of the University of Pennsylvania, priority 2021, published 2023)
Several values for one entry are separate records, joined by “and”; a condition that tells them apart may be missing. Identical values can stand only once.

Tests used:
[1] = tested on: rRNA fragments I-IV of Stop-POST5; assay: RNaseH fragment assay, Stop-POST5; type: binding, shrimp (Artemia salina); details: fit to eq (1)
Protocol: RNaseH Fragment Assay. Total RNA was prepared from the ^3H-AzAt photoaffinity labeled ribosome by phenol-chloroform extraction. RNA: DNA duplexes were formed by incubating total RNA (0.2 μM) with an oligonucleotide pair (1 μM of each, sequences shown Table 1), flanking a specific RNA region, in 22.8 μL of water at 95° C. for 2 min, followed by annealing at 50° C. for 30 s and quenching on ice. Six units (1.2 μL) of RNase H (NEB) and 6 μl of 5×RNase H Reaction Buffer were next added to the RNA: DNA duplex and incubated at 37° C. for 1 hour, followed by phenol-chloroform extraction of RNA. The digested RNA was separated on 12% TBE-Urea PAGE gel, and the target band along with the adjacent upper and bottom gels were sliced by a 2 mm gel cutter. […] The slurry was removed by centrifugation and the eluted ^3H labeled rRNA in the supernatant was quantified. The stoichiometry of AzAt photoincorporation was calculated based on a gel recovery yield of 20±2%, determined using an authentic sample of [^3H]-Gln-tRNA^Gln.
Testing the functional pertinence of AzAt photolabeling of 18S A1195, 28S-A3093, 28S-A2672, and 28S-2669. […] These experiments, the results of which are summarized in Table 5, were performed at two different AzAt concentrations. eRF1 and eRF1.eRF3.GDPNP effects were measured using 300 μM AzAt, paralleling the LASER-Seq PAL experiments.

[2] = tested on: Stop-POST5 complex (RFC-dependent termination); assay: smTIRF assay of RFC-dependent peptide and tRNA release; type: biochemical, shrimp (Artemia salina)
Protocol: Immobilization of ribosome Stop-POST 5 complexes. PEGylated flow chambers were incubated in 0.5 mg/ml streptavidin for 5 mins and washed with Buffer 4. Biotinylated Stop-POST5 containing FK(atto647)VRQ-tRNA^Gln (Cy3) in the P-site, was formed at room temperature by incubating Stop-POST4, eEF1A, GTP, and Gln-(Cy3)tRNA^Gln for 5 mins and then injected into the streptavidin-coated slide chamber. After a 5 min incubation, excess unbound ribosome was flowed out. Then eRF1/eRF3±TRIDs was injected dynamically at 3 sec while recording. The injection dead time was subtracted for each particle.
Single-molecule fluorescence imaging. All sm-TIRF studies were carried out at 24° C. […]
Image stacks were recorded at 100 ms frame rate on a custom-built objective-type total internal reflection fluorescence (TIRF) microscope based on a commercial inverted microscope (Eclipse Ti-E, Nikon) and capable of performing alternating-laser excitation (ALEX) between 532 nm and 640 nm laser beams using an acousto-optic tunable filter (AOTF, Chen et al., 2011). For the time-lapse experiment, timing of the movies, programmed into NIS-Elements (Nikon) microscope software, were recorded by illuminating the sample for 50-20 frames at 10 frames per s with 15 s or […] intervening dark intervals. […]

Compound	Hill n, photoincorporation into Fragments II and III (PTC) [1]	Hill n, inhibition of tRNA release ([2]; smTIRF)	Hill n, inhibition of pentapeptide release ([2]; smTIRF and fluorescence anisotropy, FIG. 9H)
[N-]=[N+]=Nc1ccc(-c2nc(-c3cccc(C(=O)O)c3)no2)cc1 [AzAt]	3.3 and ~3	–	–
O=C(O)c1cccc(-c2noc(-c3ccccc3F)n2)c1 [Ataluren]	–	2.7±0.4	3.0±0.6
